Measured values published in PMC8016886.

By UniProt entry, the sequences of proteins in these tests, tags left out.
UniProt P09630: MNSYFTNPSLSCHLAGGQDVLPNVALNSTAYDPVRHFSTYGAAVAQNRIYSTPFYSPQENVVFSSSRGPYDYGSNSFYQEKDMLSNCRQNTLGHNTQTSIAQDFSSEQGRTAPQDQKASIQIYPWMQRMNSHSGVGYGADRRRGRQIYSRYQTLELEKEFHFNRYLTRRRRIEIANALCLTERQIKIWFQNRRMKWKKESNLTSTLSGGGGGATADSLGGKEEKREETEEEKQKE

Molecular target: homeobox C6 (HOXC6), Flag-tagged, stably overexpressed in HCT116 cells (HOXC6-OE) (human) (UniProt P09630)
Experiment: affinity purification with mass spectrometry; FLAG Immunoprecipitation Kit (Sigma FLAGIPT1) on lysates of HOXC6-OE and NC HCT116 cells; eluates identified by LC-MS/MS (Mascot search)

binding: binds
B1: DKK1 (protein, UniProt O94907 32-266)
chain: TLNSVLNSNAIKNLPPPLGGAAGHPGSAVSAAPGILYPGGNKYQTIDNYQPYPCAEDEECGTDEYCASPTRGGDAGVQICLACRKRRKRCMRHAMCCPGNYCKNGICVSSDQNHFRGEIEETITESFGNDHSTLDGYSRRTTLSSKMYHTKGQEGSVCLRSSDCASGLCCARHFWSKICKPVLKEGQVCTKHRRKGSHGLEIFQRCYCGEGLSCRIQKDHHQASNSSRLHTCQRH

Results are given in words; binding and its absence hold for the method and conditions named. In cells and extracts the contact can be indirect. These calls come from enrichment with a bait or labelling near it, and not all partners need be listed.
